Primary screen of a compound library

The values are deposited in ChEMBL (CHEMBL3988442, “University of Dundee, Small-Polar-MMV Screening Library” (2021)).

The filed quantity is “Percent Effect” (%). The controls that fix the scale are not given in the record; negative values are as filed. This is an unselected part of the compounds tested. Two or more numbers in one place are separate tests of the same structure; such repeats can differ widely.

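Viability assay of Plasmodium falciparum sporozoites; the read-out is not stated. The concentration is filed as 10 mM, unlikely as a test dose, so the dose is not known. Direction is inferred from retests: higher values go with lower viability. Strong results were mostly tested again. About 34,000 compounds were tested under these conditions; 0.84% (about 280) showed 50% or more at least once.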

| # | structure | effect |
|---|---|---|
| 1 | `CS(=O)(=O)N1CC(c2nc[nH]n2)c2cc(C(=O)NC3CCCC3)ccc21` (stereo unspecified) | -1.954% |
| 2 | `O=C(Cn1cccc2cc(-c3ccc(F)cc3)nc1-2)N1CCC(O)CC1` | -1.811% |
| 3 | `CNC(=O)C1CN(C)CCN(C(=O)CCn2nnc3ccccc32)C1` (stereo unspecified) | -2.787% |
| 4 | `[H][C@@]12C[C@H](C(=O)N3CCOCC3)[C@@]([H])(CN(S(=O)(=O)CC(C)C)C1)O2` | 18.54% |
| 5 | `CC1(C)Oc2ccc(S(=O)(=O)NCCCn3ccnc3)cc2NC1=O` | 18.66% |
| 6 | `Cc1cncc(C(=O)NCCSCc2cccs2)c1` | -9.92% |
| 7 | `Cc1nn(C)c(C)c1C(C)NC(=O)Nc1cccnc1N1CCCC1` (stereo unspecified) | -0.32% |
| 8 | `O=C(c1ccc2c(c1)OCCCO2)N1CCCC(n2cccn2)C1` (stereo unspecified) | 5.666% |
| 9 | `O=C(O)C(F)(F)F.O=C(O)C(F)(F)F.c1cncc(N2CCOCC3(CN(Cc4cccs4)CCO3)C2)c1` (stereo unspecified) | 7.302% |
| 10 | `Cc1cccc(-n2ncc(C(=O)NCC3CCS(=O)(=O)C3)c2C)c1` (stereo unspecified) | 12.98% |
| 11 | `O=C(NCCc1ccccn1)C1(n2cnnn2)CCCCC1` | -5.722% |
| 12 | `O=C(NCCn1ccnc1)N1CCN(c2nccs2)CC1` | -1.778% |
| 13 | `c1ccc(OCCN2CCC(c3cnccn3)CC2)cc1` | 9.194% |
| 14 | `Cc1ccc(S(=O)(=O)N2CCOc3ccccc32)cc1C(N)=O` | 1.61% |
| 15 | `Cn1cc(-c2nc(CN3CCc4c(ncn4C)C3)cs2)cn1` | 16.12% & 15.46% & 16.04% |
| 16 | `Cn1ncc2c(=O)[nH]c(CN3CCCC3Cc3ccc(F)cc3)nc21` (stereo unspecified) | 3.142% |
| 17 | `CS(=O)(=O)Cc1ccc(CNC(=O)N2CCC(C(N)=O)C2)cc1` (stereo unspecified) | 2.07% |
| 18 | `Cn1cc(CN2CCC3(CCCN(Cc4ccccn4)C3)CC2)cn1` | -18.43% |
| 19 | `c1ncn(CC2CCCN(Cc3cn4ccsc4n3)C2)n1` (stereo unspecified) | 16.97% |
| 20 | `COc1ccc(-c2nc(CN3CCN(CCO)CC3)co2)cc1` | -11.46% & -5.889% & 5.07% |
| 21 | `CN(C)c1ccc(NC(=O)C2CN(Cc3ccccc3)CCO2)cn1` (stereo unspecified) | 14.95% |
| 22 | `CC(C)N(CCSc1ncnc2[nH]ncc12)C(C)C` | -0.7667% |
| 23 | `CC(=O)N1CCCC(c2cnc(-c3c(C)nn(C)c3C)cn2)C1` (stereo unspecified) | -4.498% & -11.54% & -15.71% |
| 24 | `c1ccc2oc(CN3CCOC(Cn4cccn4)C3)nc2c1` (stereo unspecified) | 7.177% |
| 25 | `CN(C)c1ncc(I)c(C2CCCCN2S(C)(=O)=O)n1` (stereo unspecified) | 0.8687% |
| 26 | `Cc1ccc(N2CCCC(NCc3ccncc3)C2)nn1` (stereo unspecified) | -0.2387% |
| 27 | `Cn1cccc1C1CCCN1C(=O)NCCCn1cccn1` (stereo unspecified) | 0% |
| 28 | `c1ccc2oc(N3CCCCC3Cn3cncn3)nc2c1` (stereo unspecified) | -4.428% |
| 29 | `CCn1cc(CN2CCC(c3nnc(CN(C)C)n3CC)CC2)cn1` | -1.745% |
| 30 | `COc1ccc(C)cc1CSCCn1nc2ccccn2c1=O` | -10.64% |
| 31 | `CCc1nc(CN2CCCN(C(=O)CCc3ccco3)CC2)cs1` | -10.02% |
| 32 | `CC(=O)c1cccc(S(=O)(=O)NCc2cccnc2N(C)C)c1` | 0.3615% |
| 33 | `Cc1ccc(CN2CCCN(Cc3cscn3)CC2)cc1` | -8.027% |
| 34 | `CN(C)CCn1cc(NC(=O)NC(C)(C)c2nccs2)cn1` | 7.135% |
| 35 | `CCc1nnc2n1CCN(Cc1csc(-c3ccc(C)o3)n1)C2` | 7.246% |
| 36 | `Nc1nc2c(c(NCc3nccs3)n1)CCN(CC1CCCC1)CC2` | -1.611% |
| 37 | `O=C(O)CCCN1C[C@@H](c2ccccc2F)[C@@]2(CCCCC(=O)N2)C1` | -0.8233% |
| 38 | `Cn1ncc2c(=O)[nH]c(CN3CCc4sccc4C3)nc21` | 5.666% |
| 39 | `CC1CN(C)CCN1C(=O)c1ccn(-c2cccc(F)c2)n1` (stereo unspecified) | 0.1952% |
| 40 | `O=C(O)C(F)(F)F.O=C1Nc2ccccc2C12CCN(c1nccs1)CC2` | 1.839% |
| 41 | `Cn1ccnc1CN1CCN(CC(O)c2ccc(F)cc2)CC1` (stereo unspecified) | 7.381% |
| 42 | `CCn1nnc2c1C(COC)CN(Cc1ccsc1)C2.O=C(O)C(F)(F)F` (stereo unspecified) | 0.2307% |
| 43 | `CCn1ncc(Cn2cc(Cl)c(N)n2)c1C` | 7.617% |
| 44 | `O=C(NCCNc1cnccn1)C1CCN(C(=O)N2CCCC2)CC1` | -17.9% |
| 45 | `Cc1cc(C)nc(N2CCC(CNC(=O)c3cnccn3)CC2)n1` | 7.896% |
| 46 | `Oc1nc(C2CC2)nc2c1nnn2C1CCN(Cc2ccoc2)CC1` | -7.187% |
| 47 | `COc1ccc(C(C)NCc2scnc2C)cc1Cn1cccn1` (stereo unspecified) | -1.053% |
| 48 | `O=C(N[C@@H]1CCNC[C@H]1O)c1ccc(F)c(F)c1` | 4.579% |
| 49 | `Nc1nccnc1C1CN(C(=O)COc2cccnc2)CCO1` (stereo unspecified) | 4.215% |